From PMC7737621 (Journal of medicinal chemistry, 2020) come the findings set out here.

The nature of series [1]: physchem. The following applies: pH 7.4.
Series [2] is described as follows: in vivo. The settings on record: male, Long-Evans, rat, ip, 10 mg/kg.

The structures appear in SMILES notation.

What is called kinetic solubility is solubility judged after dilution from a stock solution rather than from solid. In series [1], `CCCC(C)COc1ccc([C@H](CN)NC(=O)[C@@H](C)c2ccccc2)cc1` (stereo partly drawn) [Compound 1, (2S)-N-((1R)-2-amino-1-(4-(2-methylpentyloxy)-phenyl)ethyl)-2-phenylpropanamide] gave a kinetic solubility of less than 1 µM.
What is called Cmax is the highest concentration seen after dosing. In series [2], `CC[C@H](C)COc1ccc([C@H](Cc2nnc(N)o2)NC(=O)[C@@H](C)c2ccccc2)cc1.Cl` [Compound 90, (2S)-N-[(1S)-2-(5-Amino-1,3,4-oxadiazol-2-yl)-1-{4-[(2S)-2-methylbutoxy]phenyl}ethyl]-2-phenylpropanamide Hydrochloride] returned a Cmax at 8 h of 270 ng/mL.
